Measured values from US9150581B2, “Nicotinic receptor compounds” (priority 2011, dated 2015).

Key:
mice [1] = experiment: Tail-flick test (antinociception); type: in vivo, mouse; conditions: @ 10 mg/kg, sc, listed as (±)-102
mice [2] = experiment: Hot-plate test (antinociception); type: in vivo, mouse; conditions: @ 10 mg/kg, sc, listed as (±)-102

Structure (SMILES): O=[N+]([O-])c1ccc(-c2cc(C3CC4CCC3N4)cnc2F)cc1 (single isomer, unassigned)
- Tail-Flick, % effect at dose (mice [1]): 5% @ 10 and 4% @ 10
- Hot-Plate, % effect at dose (mice [2]): 10% @ 10 and 5% @ 10

The source holds more than one record for some entries. This list holds those alone. An entry can have further records. The records of an entry differ, and nothing given here explains why; they may come from other doses, times, organisms or constructs than stated.
